Record: PubChem BioAssay AID1224826 (NIAID, 2016)
The whole screen tested about 17,000 reagents; this is a random part of them. Over the whole deposit, about 1,110 (6.6%) got an active call. 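Active means lowered or raised reporter signal; replicate intensities are raw and not normalised per plate.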 Unmarked entries are inactive. Further read-outs or replicates are left out here.

Screen: 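Genes that change LPS-induced Tnf promoter activity in mouse macrophages when knocked down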 (primary screen)
Cells: RAW264.7 G9 macrophages from mouse bearing reporters for p65 (GFP) and the Tnf promoter (mCherry)
Knock-down reagent: siRNA pool against mouse genes, 100 nM
Timing: 16 h of LPS stimulation, after 2 days of siRNA transfection
Conditions: bacterial lipopolysaccharide (Salmonella minnesota R595), 10 ng/ml
Detection: 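Imaged Tnf reporter mCherry in nuclei, minus background, normalised per plate to the median and expressed as robust z-scores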
Direction: Tnf reporter robust z-score: higher = stronger Tnf promoter reporter signal after LPS
Active means: 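a well counts as active at a score of -1.3 or below (Tlr4 knock-down control median) or above 3 (raised signal); controls and wells holding fewer than 50 cells are excluded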
Calls: active = Tnf reporter clearly lowered or raised; inactive = no clear change in Tnf reporter

gene | Tnf reporter robust z-score | fewer than 50 cells in well
Dpp10 | 0.35 | enough cells in well
Rnf144b | 1.3 | enough cells in well
Papolg | -0.1 | enough cells in well
Mbtps2 | 0.92 | enough cells in well
Actr1b | 2.1 | enough cells in well
Cd151 | 0.2 | enough cells in well
Slc46a1 | -0.1 | enough cells in well
Npnt | 1.4 | enough cells in well
Wnt8b | -1.14 | enough cells in well
Rnaset2b | -1.34 (active) | enough cells in well
Meis2 | -0.02 | enough cells in well
Galnt18 | 1.24 | enough cells in well
Ucma | 0.61 | enough cells in well
Gstm6 | -0.26 | enough cells in well
Fitm1 | 1.03 | enough cells in well
Adrm1 | -1.41 (active) | enough cells in well
Mslnl | – | fewer than 50 cells per well; well left out of calls
BC061237 | – | fewer than 50 cells per well; well left out of calls
H3c7 | 3.18 (active) | enough cells in well
Rpa3 | 0.08 | enough cells in well
Urm1 | – | fewer than 50 cells per well; well left out of calls
Cd82 | -0.28 | enough cells in well
Txnrd2 | -0.08 | enough cells in well
Acot7 | 1.07 | enough cells in well
Gabrb3 | 1.48 | enough cells in well
Otub2 | – | fewer than 50 cells per well; well left out of calls
Muc13 | -0.63 | enough cells in well
Vnn3 | 1.33 | enough cells in well
Lingo1 | 2.59 | enough cells in well
Klra22 | -0.17 | enough cells in well
Fbxw11 | -1.46 (active) | enough cells in well
Stat2 | -0.8 | enough cells in well
Tcf7l1 | -1.81 (active) | enough cells in well
Or4k49 | -0.94 | enough cells in well
Elavl4 | -0.57 | enough cells in well
Cenps | 2.55 | enough cells in well
Lrrc4 | -1.17 | enough cells in well
Or8k18 | -0.12 | enough cells in well
Dpyd | -0.85 | enough cells in well
Hs3st1 | -1.73 (active) | enough cells in well
Henmt1 | -0.37 | enough cells in well
Ncoa1 | -0.23 | enough cells in well
Ndufa13 | 0.32 | enough cells in well
Vmn2r26 | -1.6 (active) | enough cells in well
Crhr1 | 0.5 | enough cells in well
Ccser1 | 2.29 | enough cells in well
Dcaf12l2 | 3.81 (active) | enough cells in well
Mpdz | 1.7 | enough cells in well
Dnah8 | 0.58 | enough cells in well
Cftr | -0.84 | enough cells in well
Or5m10 | 1.02 | enough cells in well
Aanat | 0.37 | enough cells in well
Sp3os | 1.75 | enough cells in well
Sparc | 0.24 | enough cells in well
Cdk4 | 1.05 | enough cells in well
Fam3d | 1.19 | enough cells in well
Igf2bp2 | -0.1 | enough cells in well
Pcare | -0.96 | enough cells in well
Macir | 3.56 (active) | enough cells in well
5830427D03Rik (retired record) | 1.08 | enough cells in well
Ncr1 | 0.08 | enough cells in well
Naa35 | -1.09 | enough cells in well
Or10g1 | 0.36 | enough cells in well
Cmtr1 | -0.9 | enough cells in well
Nr0b2 | 0.06 | enough cells in well
Star | -0.39 | enough cells in well
Mchr1 | -0.51 | enough cells in well
Sf3b6 | -1.52 (active) | enough cells in well
D630044L22Rik | -1.47 (active) | enough cells in well
Bcl2l14 | 2.25 | enough cells in well
Ocrl | -0.48 | enough cells in well
Bccip | -1.24 | enough cells in well
Cxcl13 | -0.71 | enough cells in well
Riiad1 | – | fewer than 50 cells per well; well left out of calls
Or8k1 | 1.27 | enough cells in well

Reagents listed so far called active:
gene | Tnf reporter robust z-score | fewer than 50 cells in well
Rnaset2b | -1.34 (active) | enough cells in well
Adrm1 | -1.41 (active) | enough cells in well
H3c7 | 3.18 (active) | enough cells in well
Fbxw11 | -1.46 (active) | enough cells in well
Tcf7l1 | -1.81 (active) | enough cells in well
Hs3st1 | -1.73 (active) | enough cells in well
Vmn2r26 | -1.6 (active) | enough cells in well
Dcaf12l2 | 3.81 (active) | enough cells in well
Macir | 3.56 (active) | enough cells in well
Sf3b6 | -1.52 (active) | enough cells in well
D630044L22Rik | -1.47 (active) | enough cells in well
